The results in this text go back to paper PMC10163288.

To fix the notation:
B1: il10ra_site1_normal_mot_65b8060e20531850bca9f2e11f97d954_0001_af2_000000137_0001_17_31_H_._HHH_b1_03310_0001_0000100015_0000002_0 (protein)
chain: SSSSDEEIHRVSRLFVRASRLLDEGNPEEAHKLLEEMEELAEEGNDERLKLSVRFLEALIKSSSS
B2: il10ra_site1_normal_mot_HHH_b2_03183_af2_000000055_0001_40_56_H_._HHH_b1_05465_0001_0000300021_0000001_0 (protein)
chain: SSSSDKEERELVRAAVRLAEQVSERVVRFLLLAAEKRAEELNDPELRELVEELREYLEELSSSSS
B3: il10ra_site1_normal_mot_HHH_b2_03438_af2_000000049_0001_18_34_H_._HHH_b2_01341_0001_0000400023_0000002_0 (protein)
chain: SSSSDVQEEVERLLEEAEEAQERGNPEEAYRLIREAAELAHERNDEELARLVQEVARRIVSSSSS
B4: il10ra_site1_normal_mot_HHH_b1_08477_000000091_0001_40_57_H_._HHH_b2_05490_af2_0001_0000100011_0000001_0 (protein)
chain: SSSSSEEERLKQSIRFAKRLIENGDPEAARRILRAAIDVARRLGDEELLEEAERVLEELDSSSSS
B5: il10ra_site1_normal_mot_HHH_b2_04680_000000215_0001_1_16_H_._HHH_b2_06226_0001_0000600061_0000001_0 (protein)
chain: SSSSSSEEKATREAYELIREAFHIEDEEKVRELLEEALELAEEANNFALIFAIRQALRELSSSSS
B6: il10ra_site1_normal_mot_HHH_b1_00999_000000080_0001_41_55_H_._HHH_b1_08189_0001_0000500019_0000001_0 (protein)
chain: SSSSSSREFSRLLQEAVRLAFKNSDEELLKALWRLAREWGEEGDEKYEEELRELIEEVGSSSSSS
B7: il10ra_site1_sap_20_mot_HHH_b1_03900_000000129_0001_1_16_H_._HHH_b2_04630_af2_0001_0000200009_0000001_0_0001 (protein)
chain: SSSSSDEDQELLELLHELIELLLRGDEEEAHKLAREILELAEELNDEKVFRMAEDLLKAASSSSS
B8: il10ra_site1_sap_19_mot_HHH_b2_07758_000000036_0001_41_55_H_._HHH_b2_04674_0001_0000100003_0000001_0_0001 (protein)
chain: SSSSSEQREALRRFIEAMVEWLEKTGDPEAERALRFLLVSARLLGDEEAEELAEEVLERLSSSSS
B9: il10ra_site1_sap_12_mot_HHH_b1_08466_000000162_0001_1_19_H_._HHH_b1_00329_0001_0000600026_0000001_0_0001 (protein)
chain: SSSSDEEEVKERVEELLEEAEKIEDKQEVARLFMEALRLAFRARDDELMEEIWRSFKELTSSSSS
B10: il10ra_site1_sap_25_mot_HHH_b2_04681_000000155_0001_43_57_H_._HHH_b2_03205_0001_0000200011_0000002_0_0001 (protein)
chain: SSSSNQYEEVERVLEEAMELYREGNPEEAERLLEEAEEELEKLNNWAALFAIRHLLRVVRNSSSS
B11: il10ra_site1_sap_17_mot_HHH_b1_01307_000000115_0001_1_18_H_._HHH_b1_07268_af2_0001_0000600052_0000001_0_0001 (protein)
chain: SSSSSDEEEREVEELLEEAKEIDDPEEAAEVLLRALRLALHLQDSELLRAVWRVVKELGSSSSSS
B12: il10ra_site1_sap_26_mot_HHH_b2_02736_000000092_0001_22_38_H_._HHH_b2_05977_0001_0000100003_0000001_0_0001_af2pred_0001 (protein)
chain: SSSSSTDESERIIELLREAVQIPDPEEAEEVLREAEELAERLGNELLRFIVEWLLKRLGSSSSSS
B13: il10ra_site1_normal_mot_HHH_b2_08144_af2_000000046_0001_38_52_H_._HHH_b2_02580_0001_0000200021_0000001_1_af2pred_0001 (protein)
chain: SSSSTEEDEEALRLLRELAELYSNGDEEEAEELAEEARRVAQEANNPLVELLIRFLLERASSSSS
B14: il10ra_site1_sap_25_mot_HHH_b2_00401_000000001_0001_40_54_H_._HHH_b2_05201_0001_0000100006_0000001_0_0001 (protein)
chain: SSSSSEEAEEILEEAEKLIEELLERGDPQRAFEVVEEAARRLLRLGDPEAIRRLIEAFVRLSSSS
B15: il10ra_site1_sap_23_mot_HHH_b1_03900_000000129_0001_1_16_H_._HHH_b1_02874_af2_0001_0000600030_0000002_0_0001_af2pred_0001 (protein)
chain: SSSSDEEAQRIAEEAEEEAEKLAEEGNPQEAAQVLAEASRRVAELGDPELALRLARLFAELSSSS
B16: il10ra_site1_normal_mot_HHH_b2_00622_af2_000000153_0001_40_57_H_._HHH_b1_02938_0001_0000100006_0000001_0 (protein)
chain: SSSSSVERAVRRLNHAAKQLLERGDPEVAERALRFAKALAESANNDELREEVEELLEEVRRSSSS
B17: il10ra_site1_sap_19_mot_HHH_b2_05984_000000071_0001_38_52_H_._HHH_b2_05373_0001_0000700029_0000001_0_0001 (protein)
chain: SSSSDEEEERLEELKKEIERLEEEGNPQEALEAIQEAVRLAFRLGDEETLQELWELVKKQESSSS
B18: il10ra_site1_normal_mot_HHH_b1_02997_000000220_0001_39_52_H_._HHH_b2_06530_af2_0001_0000100007_0000001_0 (protein)
chain: SSSDEELHELYELIREAAELLAEGNPEEAQEVVEEAERLAEKLGNVNLLFNARYLLRVIEHSSSS

This is one part of the list.

For this assay, the target named is il10ra, Q13651. As to the kind of experiment: yeast display titration.
With B1, the “apparent Kd” value was “inactive: no binding seen”. The same measure for B2: “inactive: no binding seen”; for B3: “inactive: no binding seen”; for B4: “inactive: no binding seen”. The same measure for B5: “inactive: no binding seen”. The same measure for B6: “inactive: no binding seen”; for B7: “inactive: no binding seen”.

With B8, the “apparent Kd” value is “inactive: no binding seen”. The same measure for B9: “inactive: no binding seen”; for B10: “inactive: no binding seen”. The same measure for B11: “inactive: no binding seen”; for B12: “inactive: no binding seen”; for B13: “inactive: no binding seen”. For B14, the “apparent Kd” value is “inactive: no binding seen”.

In the case of B15, the “apparent Kd” value is “inactive: no binding seen”.

In the case of B16, the “apparent Kd” value is “inactive: no binding seen”.

In the case of B17, the “apparent Kd” value is “inactive: no binding seen”.

For B18, the “apparent Kd” value is “inactive: no binding seen”.
